In patent US7652031B2, “Compounds which mimic the chemical and biological properties of discodermolide” (priority 2001, dated 2010):

Columns and labels:
A549 cells = experiment: Cytotoxicity assay, A549 cells; format: cell-based; conditions: Homo sapiens, A549, 72 h, read-out: A549 (IC50(μm))
Protocol: The A549 lung carcinoma cell line was maintained as described in Kavallaris, M., et al., “Taxol-resistant epithelial ovarian tumors are associated with altered expression of specific β-tubulin isotypes”, J. Clin. Invest., 1997, 100, 1282-1293.
(§1) A549 cells were seeded in triplicate at a density of 1×10^4 cells/ml in 6-well plates and allowed to attach for 24 h. After incubation with various drug concentrations for 72 h, adherent cells were trypsinized and counted (Coulter Counter model Z1; Coulter Corp., Miami, Fla.), and the IC50 was determined. SKOV3 cells were seeded at a density of 2×10^4 cells/ml and the above procedure followed.

SKOV3 cells = experiment: Cytotoxicity assay, SKOV3 cells; format: cell-based; conditions: Homo sapiens, SK-OV-3, 72 h, read-out: SKOV3 (IC50(μm))
Protocol: The SKOV3 ovarian carcinoma cell line was obtained from Dr. V. Ling and was maintained as described in McDaid, H. M., et al., “Structure-activity profiles of eleutherobin analogs and their cross-resistance in Taxol-resistant cell lines”, Cancer Chemother. Pharmacol., 1999, 44, 131-137.
as §1

Compound: CC(=O)O[C@H]1C(=O)[C@@]2(C)[C@H]([C@H](OC(=O)c3ccccc3)[C@]3(O)C[C@H](OC(=O)[C@H](O)[C@@H](NC(=O)c4ccccc4)c4ccccc4)C(C)=C1C3(C)C)[C@]1(OC(C)=O)CO[C@@H]1C[C@@H]2O [Taxol]
- IC50 (A549 cells): 1.4 nM
- IC50 (SKOV3 cells): 3.3 ± 0.5 nM
